In patent publication EP3783012A1, “AN ANTIMICROBIAL PEPTIDE” (priority 2019, dated 2021):
Part of at least one peptide drawing is inferred or uncertain, most often the ends. Where no end group is shown, it is not given here.

How the values were obtained:
[1] = test system: colRAB; assay: Cell viability and membrane permeabilization by flow cytometry (Live/Dead BacLight, SYTO9/PI); type: cell-based, A. baumannii; conditions: 12 µg/mL
[2] = test system: colSAB; assay: Complete Elimination (CE) Drop Plate method; type: cell-based, A. baumannii; conditions: 90 minutes challenge in PBNS
Protocol: Complete Elimination (CE) Drop Plate method: The CE method was primarily used as the antimicrobial susceptibility testing method for peptides used in this study. This was performed to avoid any interference of cations within the test media or buffer on the bioactivity of the peptides. This assay was performed by the method outlined by Chen et al. (2003) with minor modifications. Briefly, bacteria were grown overnight and sub-cultured to mid exponential phase. PBNS was used to make serial dilutions of bacteria in a 96 well plate. The appropriate volume of peptide was added to the wells at a final volume of 100 µL. As a control, PBNS was added to the bacterial suspensions without any peptide. The microtiter plate was incubated for 90 minutes at 37°C. Post challenge, 10 µL from each well was spotted onto appropriate media, depending on the strain. This was conducted in triplicate. The spots were left to dry, and the plates were incubated inverted. The first concentration to inhibit growth across all bacterial dilutions was determined as the CE concentration. Surviving colonies at sub-CE concentrations were counted after 18 hours incubation at 37°C. The reduction in colony forming units (CFU) was assessed relative to the untreated control and the log reduction induced by peptide treatment was calculated. All antimicrobial activity assays were performed in triplicate and on independent days.

[3] = test system: A. baumannii; assay: CE concentration at the bacterial density used for SEM (OD600 ~ 0.5); type: cell-based; conditions: A. baumannii resuspended at OD600 of ~ 0.5
[4] = test system: colRAB; assay: Synergy study, Fractional inhibitory concentration (FIC) by CE drop plate method; type: cell-based, A. baumannii; conditions: Pep_V2QV5D combined with colistin
Protocol: Synergy studies were conducted using the above described CE drop plate method, however two peptides were mixed in a series of concentration combinations using PBNS as a diluent before bacterial inoculation and subsequent incubation. The highest concentration combination tested was the individual CE concentrations of Pep_V2QV5D and colistin, which were 12 µg/mL and 8 µg/mL, respectively. The amounts of each compound were then reduced sequentially in various proportions until the lowest possible active combination was identified.
Traditionally, the FIC in a drug mixture is defined as the sum of the FICs (ΣFIC) and is calculated with the equation; ΣFIC = FICA + FICB = (CEcombA/CEA) + (CEcombB/CEB) [formula]
Where CEA and CEB are the killing concentrations of individual peptides A and B, respectively, and CEcombA and CEcombB are the killing concentrations of the peptides in combination. In this work we used a similar concept and analysed the ratios of FICA and FICB. 'Synergy' was interpreted as a FIC ≤ 0.5, 'antagonism' as FIC > 4.0 and 'no interaction' as FIC > 0.5-4.0 [40].

[5] = test system: colSAB; assay: Killing kinetics (time kill assay); type: cell-based, A. baumannii; conditions: at the CE concentration (12 µg/mL)
[6] = test system: colSAB; assay: Cell viability and membrane permeabilization by flow cytometry (Live/Dead BacLight, SYTO9/PI); type: cell-based, A. baumannii; conditions: 12 µg/mL, 90 minutes
[7] = test system: colRAB; assay: Killing kinetics (time kill assay); type: cell-based, A. baumannii

## GIGKFLHSAKKFGKAFVGEIMNS [magainin 2]
[1]; colRAB (resistant strain)
  cells viable post-treatment: 16%
[2]
  Complete Elimination values (CE concentration): 50 µg/mL

## VRGLAPKKSLWPFGGPFKSPFN [Pep_V2QV5D]
[1]; colRAB, 90 minutes
  cells labelled as dead: 92%
[3]
  CE concentration against bacterial density OD600 ~ 0.5: 32 µg/mL
[4]
  CE concentration in combination: 2 µg/mL
[5]
  organisms/mL eliminated after 120 minutes: 104 organisms/mL
[6]
  cells labelled as dead: 61%
[7]; PDR A. baumannii strain
  time within which 10^7 organisms/mL were eliminated: ≤ 20 minutes
[7]; colRAB, at the CE concentration (12 µg/mL)
  organisms/mL eliminated after 120 minutes: 105 organisms/mL
